# Source: paper PMC8509050, “BZR1 Physically Interacts with SPL9 to Regulate the Vegetative Phase Change and Cell Elongation in Arabidopsis” (International Journal of Molecular Sciences, 2021)
# These are yes or no findings as the source states them, for the method shown. Binding calls can cover weak binding; strength is not graded here. Tags and fused reporters may be left off the sequences shown.
# Molecular target: T1, SQUAMOSA PROMOTER BINDING PROTEIN-LIKE9 (SPL9), GAL4BD fusion (Arabidopsis thaliana) (UniProt Q700W2)
# T1 sequence: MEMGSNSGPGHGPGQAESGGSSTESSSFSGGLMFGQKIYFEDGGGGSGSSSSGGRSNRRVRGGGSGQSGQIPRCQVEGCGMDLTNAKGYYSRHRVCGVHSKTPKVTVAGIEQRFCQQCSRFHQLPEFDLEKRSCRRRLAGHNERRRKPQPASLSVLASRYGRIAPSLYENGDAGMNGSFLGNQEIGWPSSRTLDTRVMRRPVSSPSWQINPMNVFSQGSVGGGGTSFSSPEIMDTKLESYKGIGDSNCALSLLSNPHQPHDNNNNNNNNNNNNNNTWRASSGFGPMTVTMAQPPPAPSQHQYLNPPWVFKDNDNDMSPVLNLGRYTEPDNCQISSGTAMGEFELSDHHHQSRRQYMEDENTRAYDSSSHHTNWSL
# Assay: two-hybrid; direct test in yeast, SPL9 as GAL4BD fusion against BZR1, BES1, BIN2 and fragments of BZR1; growth on SD medium
row,binding,Substance
1,binds weakly,"PEST domain of BZR1, two-hybrid fusion (Arabidopsis thaliana) (domain or fragment)"
2,no binding,"BZR1-N (amino-terminal DNA binding domain of BZR1), two-hybrid fusion (Arabidopsis thaliana) (domain or fragment)"
3,binds,"BZR1-C (carboxy-terminal domain of BZR1), two-hybrid fusion (Arabidopsis thaliana) (domain or fragment)"
